# From paper PMC8748900
# These are yes or no findings as the source states them, for the method shown. Some results given as binding are weak or reduced against the parent protein; the word gives no strength. Where a sequence is shown, tags or fusion partners need not be part of it.
# B1: PRAF4_BRX (BRX domain of PRAF4/RLD1), fused with Gal4 activation domain (domain or fragment, UniProt Q947D2 1023-1078)
# chain: AEWIEQYEPGVYITLVALHDGTRDLRRVRFSRRRFGEHQAETWWSENREKVYEKYN
# Biological target: T1, BASL, full-length, fused with Gal4 DNA-binding domain (Arabidopsis thaliana) (UniProt Q5BPF3)
# T1 sequence: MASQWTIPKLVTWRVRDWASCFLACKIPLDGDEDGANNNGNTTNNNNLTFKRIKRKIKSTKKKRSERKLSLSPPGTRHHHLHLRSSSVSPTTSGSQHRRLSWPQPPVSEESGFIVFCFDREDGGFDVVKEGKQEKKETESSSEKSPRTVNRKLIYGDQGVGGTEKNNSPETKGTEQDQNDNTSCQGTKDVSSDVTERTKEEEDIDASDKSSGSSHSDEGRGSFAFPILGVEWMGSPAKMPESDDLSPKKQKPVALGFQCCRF
# Assay: two-hybrid; pairwise; bait in pGBKT7 (BD), prey in pGADT7 (AD), strain AH109; tested on SD/-Leu/-Trp/-His, 3 days at 30 °C; 3-AT where needed
binder,measurement,value
B1,binding,binds
